From US5773263A, “Production aflastatin A from streptomyces sp., a pharmaceutical composition and methods of use” (Morinaga & Co., Ltd., priority 1996, dated 1998)

Tested on: peanut plants
Assay: Weight of sprayed peanut plants and of their grains
Assay type: in vivo, peanut (US-Florunner)
Details: for Weight of seven pieces of peanut grains: control 11.0; for Number of grains with shells: control 76; for Weight of grains with shells: control 213.7; for Weight of plants: control 485.1

`CCCCCCCCCC(O)C[C@]1(O)O[C@H](CC(O)C(O)C(O)C(O)C(O)CC(O)CC(O)CC(O)C(C)C(O)C(C)C(O)CC(O)C(C)C(O)C(C)C(O)C(C)C(O)C(O)CC(C)CC(C)/C=C(C)/C(O)=C2/C(=O)C(C)N(C)C2=O)[C@@H](O)[C@H](O)[C@@H]1O` (some centres unmarked) [aflastatin A] was tested, and the “Weight of seven pieces of peanut grains” value (aflastatin A 2 mg/individual) was 11.6 g, the “Number of grains with shells” value (aflastatin A 2 mg/individual) was 60 number and the “Weight of grains with shells” value (aflastatin A 2 mg/individual) was 167.4 g. The Weight of plants (aflastatin A 2 mg/individual) was 413.5 g, the “Weight of seven pieces of peanut grains” value (aflastatin A 10 mg/individual) was 11.5 g and the “Number of grains with shells” value (aflastatin A 10 mg/individual) was 66 number. The “Weight of grains with shells” value (aflastatin A 10 mg/individual) was 192.8 g and the Weight of plants (aflastatin A 10 mg/individual) was 432.1 g.
